Laboratory results published in paper PMC10604565 (Antibiotics, 2023).
Where a sequence shows no end group, the ends are not given.

Test: general procedure: Fmoc solid-phase peptide synthesis; Fmoc-Wang resin, preloaded, 0.4–0.8 mmol/g; Oxyma pure/DIC (double coupling, 8 eq.); HATU/DIPEA for Fmoc-Asp(OtBu)-(Dmb)Gly-
Conditions: whole synthesis, analytical LC-MS

HTSRLKARKHSKRRVRDKDGDLKTQIEKLWTEVNALKEIQALQTVCL
final LC-MS purity: 91%
